Reference: PubChem BioAssay AID1259308 (NCATS, 2017)

Aim: 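Knock-downs that increase output of a recombinant reporter protein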 (primary screen)
System: human HEK293 embryonic kidney cells stably expressing firefly luciferase (HEK-CMV-Luc2-Hygro)
Reagents: single siRNA against human genes, 0.8 pmol siRNA per well
Timing: 72 h
Measurement: 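Luciferase light (ONE-Glo) measured on one replicate plate set and viability (CellTiter-Glo) on the other, scaled to a negative control siRNA, with robust z-scores and luciferase per cell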
Scale: total luciferase, z-score: higher = more reporter protein produced
Active means: 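An siRNA counts as active if its total luciferase robust z-score exceeds 3; genes with two or more such siRNAs out of three were retested with fresh siRNAs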
Calls: active = raised luciferase; inactive = no rise
In all, the deposit lists about 59,000 reagents; this is a random part of them. Of all reagents, about 1,510 (2.6%) got an active call. 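Calls use total luciferase alone and ignore viability, so some active siRNAs may act by altering cell number.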 The numbers tell different reagents against one gene apart. Not all columns of the deposit are shown. Reagent sequences are not shown.

RBM45 (RNA binding motif protein 45) #1 | total luciferase, z-score = 1.64; call = inactive
RBM45 (RNA binding motif protein 45) #2 | total luciferase, z-score = -0.405; call = inactive
RBM45 (RNA binding motif protein 45) #3 | total luciferase, z-score = 1.41; call = inactive
SRPX2 (sushi repeat containing protein X-linked 2) #1 | total luciferase, z-score = 0.443; call = inactive
SRPX2 (sushi repeat containing protein X-linked 2) #2 | total luciferase, z-score = 0.251; call = inactive
SRPX2 (sushi repeat containing protein X-linked 2) #3 | total luciferase, z-score = 1.56; call = inactive
TINF2 (TERF1 interacting nuclear factor 2) #1 | total luciferase, z-score = -1.01; call = inactive
TINF2 (TERF1 interacting nuclear factor 2) #2 | total luciferase, z-score = -0.545; call = inactive
TINF2 (TERF1 interacting nuclear factor 2) #3 | total luciferase, z-score = 0.127; call = inactive
IFNLR1 (interferon lambda receptor 1) #1 | total luciferase, z-score = 1.08; call = inactive
IFNLR1 (interferon lambda receptor 1) #2 | total luciferase, z-score = -0.628; call = inactive
IFNLR1 (interferon lambda receptor 1) #3 | total luciferase, z-score = 0.457; call = inactive
CTIF (cap binding complex dependent translation initiation factor) #1 | total luciferase, z-score = -0.0667; call = inactive
CTIF (cap binding complex dependent translation initiation factor) #2 | total luciferase, z-score = 0.314; call = inactive
CTIF (cap binding complex dependent translation initiation factor) #3 | total luciferase, z-score = 0.131; call = inactive
TMT1A (thiol methyltransferase 1A) #1 | total luciferase, z-score = -0.202; call = inactive
TMT1A (thiol methyltransferase 1A) #2 | total luciferase, z-score = -0.351; call = inactive
TMT1A (thiol methyltransferase 1A) #3 | total luciferase, z-score = -0.476; call = inactive
KLHL8 (kelch like family member 8) #1 | total luciferase, z-score = -0.157; call = inactive
KLHL8 (kelch like family member 8) #2 | total luciferase, z-score = -0.306; call = inactive
KLHL8 (kelch like family member 8) #3 | total luciferase, z-score = -1.26; call = inactive

Entries listed so far whose target name starts with I or i:
IFNLR1 (interferon lambda receptor 1) #1 | total luciferase, z-score = 1.08; call = inactive
IFNLR1 (interferon lambda receptor 1) #2 | total luciferase, z-score = -0.628; call = inactive
IFNLR1 (interferon lambda receptor 1) #3 | total luciferase, z-score = 0.457; call = inactive

More entries follow:
CCL18 (C-C motif chemokine ligand 18) #1 | total luciferase, z-score = -0.576; call = inactive
CCL18 (C-C motif chemokine ligand 18) #2 | total luciferase, z-score = -0.494; call = inactive
CCL18 (C-C motif chemokine ligand 18) #3 | total luciferase, z-score = 1.51; call = inactive
BRCA2 (BRCA2 DNA repair associated) #1 | total luciferase, z-score = 0.18; call = inactive
BRCA2 (BRCA2 DNA repair associated) #2 | total luciferase, z-score = 0.541; call = inactive
BRCA2 (BRCA2 DNA repair associated) #3 | total luciferase, z-score = -0.768; call = inactive
GLS2 (glutaminase 2) #1 | total luciferase, z-score = 0.131; call = inactive
GLS2 (glutaminase 2) #2 | total luciferase, z-score = 0.389; call = inactive
GLS2 (glutaminase 2) #3 | total luciferase, z-score = 1.41; call = inactive
ADAMTSL4 (ADAMTS like 4) #1 | total luciferase, z-score = 1.18; call = inactive
ADAMTSL4 (ADAMTS like 4) #2 | total luciferase, z-score = 0.986; call = inactive
ADAMTSL4 (ADAMTS like 4) #3 | total luciferase, z-score = -0.918; call = inactive
